From article PMC5356016, “Suppression of Sin3A activity promotes differentiation of pluripotent cells into functional neurons” (Scientific Reports, 2017)
These are yes or no findings as the source states them, for the method shown. In cells and extracts the contact can be indirect. Some entries that bind do so weakly or less than the wild type.

Key:
[1] = molecular target: T1, repressor element-1 (RE1) silencing transcription factor (mouse (endogenous in P19)) (UniProt Q8VIG1); assay: co-IP; P19 cell lysates incubated 2 h with or without SAP25 or MAD1 peptide; REST precipitated with anti-REST and probed with anti-Sin3A, and conversely Sin3A precipitated with anti-Sin3A and blotted with anti-REST
T1 sequence: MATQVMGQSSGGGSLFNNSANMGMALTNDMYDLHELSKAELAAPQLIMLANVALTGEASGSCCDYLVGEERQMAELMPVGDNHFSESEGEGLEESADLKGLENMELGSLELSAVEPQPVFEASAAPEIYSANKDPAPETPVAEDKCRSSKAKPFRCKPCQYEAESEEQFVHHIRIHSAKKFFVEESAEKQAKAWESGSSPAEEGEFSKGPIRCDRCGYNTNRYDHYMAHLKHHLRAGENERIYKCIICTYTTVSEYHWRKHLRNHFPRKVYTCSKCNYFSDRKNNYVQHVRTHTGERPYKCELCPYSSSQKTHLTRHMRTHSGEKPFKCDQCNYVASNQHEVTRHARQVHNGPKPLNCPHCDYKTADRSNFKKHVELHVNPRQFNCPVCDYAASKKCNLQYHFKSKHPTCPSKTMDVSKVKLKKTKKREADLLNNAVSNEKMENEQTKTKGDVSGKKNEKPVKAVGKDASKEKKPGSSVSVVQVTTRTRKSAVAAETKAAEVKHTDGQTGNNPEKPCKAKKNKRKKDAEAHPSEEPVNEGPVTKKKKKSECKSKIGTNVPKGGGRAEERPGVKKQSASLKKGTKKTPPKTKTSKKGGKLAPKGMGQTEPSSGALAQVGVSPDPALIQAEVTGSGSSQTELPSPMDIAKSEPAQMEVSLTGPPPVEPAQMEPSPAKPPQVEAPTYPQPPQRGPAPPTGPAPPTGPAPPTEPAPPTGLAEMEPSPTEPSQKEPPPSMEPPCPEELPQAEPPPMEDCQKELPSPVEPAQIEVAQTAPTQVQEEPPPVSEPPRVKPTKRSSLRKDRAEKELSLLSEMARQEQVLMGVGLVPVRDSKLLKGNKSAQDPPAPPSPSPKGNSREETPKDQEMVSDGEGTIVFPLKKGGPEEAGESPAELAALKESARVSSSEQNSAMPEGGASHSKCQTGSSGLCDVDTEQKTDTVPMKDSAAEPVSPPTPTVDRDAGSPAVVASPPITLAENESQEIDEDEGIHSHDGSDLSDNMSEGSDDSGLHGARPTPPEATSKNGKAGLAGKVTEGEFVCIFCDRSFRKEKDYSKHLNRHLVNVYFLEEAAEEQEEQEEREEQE

[2] = molecular target: T2, Sin3A (mouse (endogenous in P19)) (UniProt Q60520); assay: co-IP; competition: synthetic peptide at several concentrations added to P19 cell lysates for 2 h before immunoprecipitation of REST or Sin3A; loss of the co-precipitated partner read by western blot; only the binder purified
T2 sequence: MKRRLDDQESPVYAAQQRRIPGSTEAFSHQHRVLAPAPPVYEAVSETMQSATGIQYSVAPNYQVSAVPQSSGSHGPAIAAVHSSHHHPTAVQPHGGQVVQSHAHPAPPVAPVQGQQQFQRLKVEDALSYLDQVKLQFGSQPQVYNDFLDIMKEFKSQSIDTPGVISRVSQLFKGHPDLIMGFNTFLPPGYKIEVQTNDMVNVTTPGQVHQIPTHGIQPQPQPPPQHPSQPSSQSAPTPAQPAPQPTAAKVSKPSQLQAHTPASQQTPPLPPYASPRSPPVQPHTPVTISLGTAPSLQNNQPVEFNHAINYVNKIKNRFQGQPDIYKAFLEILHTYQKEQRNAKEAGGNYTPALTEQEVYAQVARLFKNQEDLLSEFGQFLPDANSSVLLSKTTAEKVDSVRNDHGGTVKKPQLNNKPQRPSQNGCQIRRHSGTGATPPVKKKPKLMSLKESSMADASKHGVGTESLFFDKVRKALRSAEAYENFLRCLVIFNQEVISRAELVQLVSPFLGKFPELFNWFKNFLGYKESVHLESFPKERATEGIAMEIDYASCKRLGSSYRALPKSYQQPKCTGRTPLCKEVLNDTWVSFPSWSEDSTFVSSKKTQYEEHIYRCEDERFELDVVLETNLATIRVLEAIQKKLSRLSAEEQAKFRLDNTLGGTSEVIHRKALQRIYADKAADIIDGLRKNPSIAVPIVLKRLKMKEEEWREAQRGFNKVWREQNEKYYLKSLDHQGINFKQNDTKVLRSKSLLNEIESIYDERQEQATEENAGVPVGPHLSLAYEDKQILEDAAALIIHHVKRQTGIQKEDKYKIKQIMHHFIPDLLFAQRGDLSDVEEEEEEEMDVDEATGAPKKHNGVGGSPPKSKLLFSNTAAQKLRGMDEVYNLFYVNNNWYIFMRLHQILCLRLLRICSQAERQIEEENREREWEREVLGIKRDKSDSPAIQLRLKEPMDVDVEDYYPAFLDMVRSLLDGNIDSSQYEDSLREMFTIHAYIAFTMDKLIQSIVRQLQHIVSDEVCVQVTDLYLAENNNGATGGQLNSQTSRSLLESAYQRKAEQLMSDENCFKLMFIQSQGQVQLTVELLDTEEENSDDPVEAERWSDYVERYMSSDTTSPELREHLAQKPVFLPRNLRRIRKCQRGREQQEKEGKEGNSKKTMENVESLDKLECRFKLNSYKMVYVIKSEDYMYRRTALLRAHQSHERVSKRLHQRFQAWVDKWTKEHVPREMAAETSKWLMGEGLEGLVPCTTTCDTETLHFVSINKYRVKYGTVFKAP

B1: Sin3A (protein, UniProt Q60520 1-1274)
chain: MKRRLDDQESPVYAAQQRRIPGSTEAFSHQHRVLAPAPPVYEAVSETMQSATGIQYSVAPNYQVSAVPQSSGSHGPAIAAVHSSHHHPTAVQPHGGQVVQSHAHPAPPVAPVQGQQQFQRLKVEDALSYLDQVKLQFGSQPQVYNDFLDIMKEFKSQSIDTPGVISRVSQLFKGHPDLIMGFNTFLPPGYKIEVQTNDMVNVTTPGQVHQIPTHGIQPQPQPPPQHPSQPSSQSAPTPAQPAPQPTAAKVSKPSQLQAHTPASQQTPPLPPYASPRSPPVQPHTPVTISLGTAPSLQNNQPVEFNHAINYVNKIKNRFQGQPDIYKAFLEILHTYQKEQRNAKEAGGNYTPALTEQEVYAQVARLFKNQEDLLSEFGQFLPDANSSVLLSKTTAEKVDSVRNDHGGTVKKPQLNNKPQRPSQNGCQIRRHSGTGATPPVKKKPKLMSLKESSMADASKHGVGTESLFFDKVRKALRSAEAYENFLRCLVIFNQEVISRAELVQLVSPFLGKFPELFNWFKNFLGYKESVHLESFPKERATEGIAMEIDYASCKRLGSSYRALPKSYQQPKCTGRTPLCKEVLNDTWVSFPSWSEDSTFVSSKKTQYEEHIYRCEDERFELDVVLETNLATIRVLEAIQKKLSRLSAEEQAKFRLDNTLGGTSEVIHRKALQRIYADKAADIIDGLRKNPSIAVPIVLKRLKMKEEEWREAQRGFNKVWREQNEKYYLKSLDHQGINFKQNDTKVLRSKSLLNEIESIYDERQEQATEENAGVPVGPHLSLAYEDKQILEDAAALIIHHVKRQTGIQKEDKYKIKQIMHHFIPDLLFAQRGDLSDVEEEEEEEMDVDEATGAPKKHNGVGGSPPKSKLLFSNTAAQKLRGMDEVYNLFYVNNNWYIFMRLHQILCLRLLRICSQAERQIEEENREREWEREVLGIKRDKSDSPAIQLRLKEPMDVDVEDYYPAFLDMVRSLLDGNIDSSQYEDSLREMFTIHAYIAFTMDKLIQSIVRQLQHIVSDEVCVQVTDLYLAENNNGATGGQLNSQTSRSLLESAYQRKAEQLMSDENCFKLMFIQSQGQVQLTVELLDTEEENSDDPVEAERWSDYVERYMSSDTTSPELREHLAQKPVFLPRNLRRIRKCQRGREQQEKEGKEGNSKKTMENVESLDKLECRFKLNSYKMVYVIKSEDYMYRRTALLRAHQSHERVSKRLHQRFQAWVDKWTKEHVPREMAAETSKWLMGEGLEGLVPCTTTCDTETLHFVSINKYRVKYGTVFKAP
How did the binding [1] turn out when B1 was run?
The binding was “binds”.

B2: Mad1 peptide (sequence 6-21 of the Mad1 protein) (peptide)
peptide: RMNIQMLLEAADYLER
notes: Mad1 protein, residues 6-21; source: synthetic peptide (solid support, Fmoc/t-Bu strategy)
Which binding [2] does the source give for B2 here?
The binding was “binds”.
